Binding data for one substance are collected here from article PMC11784234.

Chains of the proteins cited; added tags and fusions are not shown.
UniProt P52630: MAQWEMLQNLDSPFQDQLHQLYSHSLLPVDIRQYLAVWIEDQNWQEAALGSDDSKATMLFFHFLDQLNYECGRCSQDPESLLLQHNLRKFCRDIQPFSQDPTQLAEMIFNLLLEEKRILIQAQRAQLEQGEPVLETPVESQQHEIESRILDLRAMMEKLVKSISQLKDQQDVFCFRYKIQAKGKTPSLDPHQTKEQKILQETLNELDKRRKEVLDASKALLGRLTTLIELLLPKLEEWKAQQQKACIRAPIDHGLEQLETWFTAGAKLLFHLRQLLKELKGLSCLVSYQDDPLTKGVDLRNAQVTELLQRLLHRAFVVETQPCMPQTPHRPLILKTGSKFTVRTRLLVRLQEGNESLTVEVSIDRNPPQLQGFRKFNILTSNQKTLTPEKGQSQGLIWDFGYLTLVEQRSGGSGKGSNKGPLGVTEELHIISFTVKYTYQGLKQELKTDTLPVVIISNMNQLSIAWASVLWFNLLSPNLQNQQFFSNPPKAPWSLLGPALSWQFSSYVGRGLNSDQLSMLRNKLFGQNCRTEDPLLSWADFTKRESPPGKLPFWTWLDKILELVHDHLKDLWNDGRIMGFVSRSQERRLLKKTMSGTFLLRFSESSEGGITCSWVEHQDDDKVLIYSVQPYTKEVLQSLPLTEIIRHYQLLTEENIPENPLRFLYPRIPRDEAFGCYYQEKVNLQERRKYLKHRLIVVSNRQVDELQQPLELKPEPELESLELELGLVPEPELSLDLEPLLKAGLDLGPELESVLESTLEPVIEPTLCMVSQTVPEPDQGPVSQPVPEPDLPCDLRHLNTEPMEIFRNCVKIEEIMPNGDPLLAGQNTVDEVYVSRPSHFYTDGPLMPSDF
UniProt O00429: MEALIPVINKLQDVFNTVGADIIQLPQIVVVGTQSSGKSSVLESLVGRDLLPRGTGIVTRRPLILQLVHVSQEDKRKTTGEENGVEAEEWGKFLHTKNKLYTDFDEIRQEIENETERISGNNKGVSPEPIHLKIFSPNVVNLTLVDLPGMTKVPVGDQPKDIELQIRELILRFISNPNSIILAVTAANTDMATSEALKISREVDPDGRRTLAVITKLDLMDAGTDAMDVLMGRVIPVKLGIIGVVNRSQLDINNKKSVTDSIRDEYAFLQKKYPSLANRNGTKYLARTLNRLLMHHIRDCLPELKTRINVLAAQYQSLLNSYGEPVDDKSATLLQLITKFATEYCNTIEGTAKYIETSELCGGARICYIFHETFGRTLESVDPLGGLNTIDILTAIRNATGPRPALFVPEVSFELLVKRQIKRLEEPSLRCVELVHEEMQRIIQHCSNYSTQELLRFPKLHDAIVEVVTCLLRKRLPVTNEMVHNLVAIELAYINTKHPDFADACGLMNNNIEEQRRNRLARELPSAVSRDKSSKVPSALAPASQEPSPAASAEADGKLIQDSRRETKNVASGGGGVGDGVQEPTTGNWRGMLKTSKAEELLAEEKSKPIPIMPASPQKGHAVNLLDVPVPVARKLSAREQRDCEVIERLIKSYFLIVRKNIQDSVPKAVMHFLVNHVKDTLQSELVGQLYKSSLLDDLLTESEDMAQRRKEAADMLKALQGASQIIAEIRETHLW

These are yes or no findings as the source states them, for the method shown. Binding seen in cells or lysates may run through a third protein.

This assay deals with human STAT2, HA-tagged (HA-STAT2-Myc) (human) (UniProt P52630). Kind of assay: co-IP; HEK293T cells transfected; lysate incubated with anti-HA Affinity Gel at 4°C overnight, immunoblot. (In general: Immunoblotting shows a protein as a band on a membrane.)

Take DRP1 (from UniProt O00429 1-736): the binding entry is “no binding”.
